Data from PMC6911077.

Chains of the proteins cited; added tags and fusions are not shown.
UniProt Q92878: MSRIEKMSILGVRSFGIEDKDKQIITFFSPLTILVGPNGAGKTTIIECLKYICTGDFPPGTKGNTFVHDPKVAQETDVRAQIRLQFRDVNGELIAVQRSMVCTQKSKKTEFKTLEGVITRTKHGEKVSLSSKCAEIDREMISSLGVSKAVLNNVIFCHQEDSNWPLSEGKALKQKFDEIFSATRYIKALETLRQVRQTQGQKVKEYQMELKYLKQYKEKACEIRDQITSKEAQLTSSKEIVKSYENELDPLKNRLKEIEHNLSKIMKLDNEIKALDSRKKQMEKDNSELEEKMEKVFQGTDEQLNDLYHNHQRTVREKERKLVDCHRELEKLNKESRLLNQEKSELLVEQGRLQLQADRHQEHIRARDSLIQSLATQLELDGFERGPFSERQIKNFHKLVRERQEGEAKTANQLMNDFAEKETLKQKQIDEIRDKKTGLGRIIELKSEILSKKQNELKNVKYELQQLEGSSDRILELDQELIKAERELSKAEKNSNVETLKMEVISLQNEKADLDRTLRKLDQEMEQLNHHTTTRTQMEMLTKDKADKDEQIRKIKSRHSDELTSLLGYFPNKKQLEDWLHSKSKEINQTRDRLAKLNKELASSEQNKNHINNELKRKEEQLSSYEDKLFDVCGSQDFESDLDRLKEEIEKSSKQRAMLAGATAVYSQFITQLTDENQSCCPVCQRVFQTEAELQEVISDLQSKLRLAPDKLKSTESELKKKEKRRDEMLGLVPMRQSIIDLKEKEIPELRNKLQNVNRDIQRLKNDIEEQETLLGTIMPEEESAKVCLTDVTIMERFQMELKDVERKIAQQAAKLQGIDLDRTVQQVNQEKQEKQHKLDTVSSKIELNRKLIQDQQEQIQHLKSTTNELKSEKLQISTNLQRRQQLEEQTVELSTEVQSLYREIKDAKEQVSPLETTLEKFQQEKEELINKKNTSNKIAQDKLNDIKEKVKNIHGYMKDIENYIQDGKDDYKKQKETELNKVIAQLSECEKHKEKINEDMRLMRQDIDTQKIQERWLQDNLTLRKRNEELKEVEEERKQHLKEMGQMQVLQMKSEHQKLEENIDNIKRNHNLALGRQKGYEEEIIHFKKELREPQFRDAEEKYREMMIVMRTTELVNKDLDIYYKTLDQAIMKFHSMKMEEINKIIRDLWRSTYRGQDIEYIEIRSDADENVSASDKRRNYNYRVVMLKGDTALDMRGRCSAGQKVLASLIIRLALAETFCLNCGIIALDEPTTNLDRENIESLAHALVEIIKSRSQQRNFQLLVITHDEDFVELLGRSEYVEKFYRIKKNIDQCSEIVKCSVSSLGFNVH
UniProt P78527: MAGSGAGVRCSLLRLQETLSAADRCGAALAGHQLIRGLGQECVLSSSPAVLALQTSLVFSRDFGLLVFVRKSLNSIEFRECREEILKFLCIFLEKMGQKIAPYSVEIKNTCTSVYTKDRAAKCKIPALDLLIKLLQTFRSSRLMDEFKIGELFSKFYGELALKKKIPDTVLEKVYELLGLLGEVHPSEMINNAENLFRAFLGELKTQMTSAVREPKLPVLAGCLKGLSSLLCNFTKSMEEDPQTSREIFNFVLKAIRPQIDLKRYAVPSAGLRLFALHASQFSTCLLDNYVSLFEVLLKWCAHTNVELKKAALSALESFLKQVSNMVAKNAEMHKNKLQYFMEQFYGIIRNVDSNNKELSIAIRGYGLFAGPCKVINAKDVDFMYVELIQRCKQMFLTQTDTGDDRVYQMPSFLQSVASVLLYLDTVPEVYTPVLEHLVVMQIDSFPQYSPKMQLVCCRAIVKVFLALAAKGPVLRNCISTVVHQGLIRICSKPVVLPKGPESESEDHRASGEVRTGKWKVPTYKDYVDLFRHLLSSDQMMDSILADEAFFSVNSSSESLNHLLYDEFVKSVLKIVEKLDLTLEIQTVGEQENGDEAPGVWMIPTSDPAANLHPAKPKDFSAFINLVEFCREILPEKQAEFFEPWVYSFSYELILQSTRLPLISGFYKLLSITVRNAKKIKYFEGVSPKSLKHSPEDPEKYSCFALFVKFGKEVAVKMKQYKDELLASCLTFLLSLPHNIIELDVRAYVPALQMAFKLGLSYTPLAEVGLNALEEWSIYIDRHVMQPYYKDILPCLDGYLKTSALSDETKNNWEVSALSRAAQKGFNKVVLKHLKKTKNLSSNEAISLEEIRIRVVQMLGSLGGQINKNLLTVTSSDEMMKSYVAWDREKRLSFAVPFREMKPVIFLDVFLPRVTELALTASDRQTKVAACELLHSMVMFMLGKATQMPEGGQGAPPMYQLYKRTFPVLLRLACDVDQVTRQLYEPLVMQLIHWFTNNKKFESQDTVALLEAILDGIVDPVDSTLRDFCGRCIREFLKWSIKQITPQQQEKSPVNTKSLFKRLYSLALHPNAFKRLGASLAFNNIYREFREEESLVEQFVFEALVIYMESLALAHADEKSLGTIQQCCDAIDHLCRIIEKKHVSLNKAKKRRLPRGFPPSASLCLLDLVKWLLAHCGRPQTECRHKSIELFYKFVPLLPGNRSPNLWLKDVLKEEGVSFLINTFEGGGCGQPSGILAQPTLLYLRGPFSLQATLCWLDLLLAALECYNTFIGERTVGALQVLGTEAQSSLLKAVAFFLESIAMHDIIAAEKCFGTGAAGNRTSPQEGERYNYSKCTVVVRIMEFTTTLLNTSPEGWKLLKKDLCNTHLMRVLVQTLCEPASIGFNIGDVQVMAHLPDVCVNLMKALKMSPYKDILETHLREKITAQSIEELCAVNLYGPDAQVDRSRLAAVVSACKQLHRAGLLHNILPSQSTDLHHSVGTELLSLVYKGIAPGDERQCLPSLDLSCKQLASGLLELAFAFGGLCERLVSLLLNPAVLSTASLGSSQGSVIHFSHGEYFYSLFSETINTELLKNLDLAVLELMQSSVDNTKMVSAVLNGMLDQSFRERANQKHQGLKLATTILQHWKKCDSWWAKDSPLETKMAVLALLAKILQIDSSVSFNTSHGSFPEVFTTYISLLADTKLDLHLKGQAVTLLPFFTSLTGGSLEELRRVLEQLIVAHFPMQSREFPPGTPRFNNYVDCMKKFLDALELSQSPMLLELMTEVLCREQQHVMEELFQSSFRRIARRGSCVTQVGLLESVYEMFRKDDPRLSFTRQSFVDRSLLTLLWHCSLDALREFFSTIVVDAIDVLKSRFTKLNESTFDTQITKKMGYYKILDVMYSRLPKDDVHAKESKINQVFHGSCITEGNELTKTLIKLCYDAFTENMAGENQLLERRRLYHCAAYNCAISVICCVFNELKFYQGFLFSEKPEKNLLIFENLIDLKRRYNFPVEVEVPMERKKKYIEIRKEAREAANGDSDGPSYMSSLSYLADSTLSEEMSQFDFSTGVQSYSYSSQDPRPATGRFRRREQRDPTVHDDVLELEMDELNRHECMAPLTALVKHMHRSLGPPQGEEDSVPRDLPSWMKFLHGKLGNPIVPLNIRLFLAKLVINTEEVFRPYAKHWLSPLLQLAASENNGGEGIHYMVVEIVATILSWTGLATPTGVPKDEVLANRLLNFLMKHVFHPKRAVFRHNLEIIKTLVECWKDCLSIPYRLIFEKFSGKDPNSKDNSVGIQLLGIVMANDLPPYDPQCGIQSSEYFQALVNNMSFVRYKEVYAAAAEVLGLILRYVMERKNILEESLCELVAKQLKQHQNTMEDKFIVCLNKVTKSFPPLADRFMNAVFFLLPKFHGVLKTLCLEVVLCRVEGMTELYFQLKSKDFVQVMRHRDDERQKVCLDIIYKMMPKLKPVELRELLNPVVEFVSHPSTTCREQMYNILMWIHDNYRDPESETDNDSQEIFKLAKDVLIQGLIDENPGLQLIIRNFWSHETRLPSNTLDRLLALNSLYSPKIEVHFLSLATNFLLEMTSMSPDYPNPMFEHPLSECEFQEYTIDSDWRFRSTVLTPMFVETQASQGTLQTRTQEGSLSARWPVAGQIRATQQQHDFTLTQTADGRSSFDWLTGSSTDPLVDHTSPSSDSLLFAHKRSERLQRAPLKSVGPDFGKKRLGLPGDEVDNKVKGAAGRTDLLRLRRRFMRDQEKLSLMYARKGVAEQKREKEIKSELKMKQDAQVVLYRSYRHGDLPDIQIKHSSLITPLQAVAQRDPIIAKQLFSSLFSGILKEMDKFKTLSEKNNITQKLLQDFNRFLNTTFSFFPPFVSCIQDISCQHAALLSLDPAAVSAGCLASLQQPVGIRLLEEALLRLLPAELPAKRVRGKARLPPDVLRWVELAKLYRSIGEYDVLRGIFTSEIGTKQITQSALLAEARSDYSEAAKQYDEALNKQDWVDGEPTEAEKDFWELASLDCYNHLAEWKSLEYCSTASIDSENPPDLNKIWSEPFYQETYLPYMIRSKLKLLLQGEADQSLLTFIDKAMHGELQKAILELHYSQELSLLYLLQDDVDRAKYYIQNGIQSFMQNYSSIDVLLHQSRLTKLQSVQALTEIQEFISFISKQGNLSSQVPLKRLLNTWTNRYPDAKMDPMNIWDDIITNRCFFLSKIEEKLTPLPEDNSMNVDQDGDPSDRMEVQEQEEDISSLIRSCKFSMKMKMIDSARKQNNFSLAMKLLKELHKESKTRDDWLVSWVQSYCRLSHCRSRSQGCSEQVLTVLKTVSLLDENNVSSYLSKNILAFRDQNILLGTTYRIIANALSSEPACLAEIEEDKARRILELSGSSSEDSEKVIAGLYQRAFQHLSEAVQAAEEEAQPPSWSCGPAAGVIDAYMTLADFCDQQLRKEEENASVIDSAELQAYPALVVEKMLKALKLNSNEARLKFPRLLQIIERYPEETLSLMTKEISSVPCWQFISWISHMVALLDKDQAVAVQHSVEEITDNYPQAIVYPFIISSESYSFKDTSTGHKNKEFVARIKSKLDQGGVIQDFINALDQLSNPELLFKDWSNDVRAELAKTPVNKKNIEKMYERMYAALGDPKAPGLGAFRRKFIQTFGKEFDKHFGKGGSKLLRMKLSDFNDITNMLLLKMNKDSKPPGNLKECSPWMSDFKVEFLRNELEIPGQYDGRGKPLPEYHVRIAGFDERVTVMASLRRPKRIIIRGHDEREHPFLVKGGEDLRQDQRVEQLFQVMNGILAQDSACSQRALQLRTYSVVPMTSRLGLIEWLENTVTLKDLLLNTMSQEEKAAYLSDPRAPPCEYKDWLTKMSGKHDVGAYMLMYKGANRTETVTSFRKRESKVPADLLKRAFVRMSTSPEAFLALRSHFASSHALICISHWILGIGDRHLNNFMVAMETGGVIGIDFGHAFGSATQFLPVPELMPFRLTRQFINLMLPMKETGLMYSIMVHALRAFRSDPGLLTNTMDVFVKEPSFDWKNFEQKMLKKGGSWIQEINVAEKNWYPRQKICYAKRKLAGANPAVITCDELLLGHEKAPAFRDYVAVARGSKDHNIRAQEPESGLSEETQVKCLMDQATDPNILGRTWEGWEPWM

Biological target: T1, Flag-RAP1 (human) (UniProt Q9NYB0)
T1 sequence: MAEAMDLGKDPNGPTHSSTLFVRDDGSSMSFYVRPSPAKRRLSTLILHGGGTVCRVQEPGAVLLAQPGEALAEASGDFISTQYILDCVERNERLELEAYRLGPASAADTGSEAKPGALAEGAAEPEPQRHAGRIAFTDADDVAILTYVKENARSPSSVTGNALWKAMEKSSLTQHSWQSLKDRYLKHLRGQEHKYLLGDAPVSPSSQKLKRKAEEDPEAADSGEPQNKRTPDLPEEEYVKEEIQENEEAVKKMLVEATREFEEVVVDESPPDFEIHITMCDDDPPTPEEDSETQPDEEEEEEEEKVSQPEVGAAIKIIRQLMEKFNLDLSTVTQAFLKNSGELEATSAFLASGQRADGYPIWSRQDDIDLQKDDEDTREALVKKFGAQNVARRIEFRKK
Experiment: affinity purification with mass spectrometry; SILAC-MS using Flag-RAP1-expressing 293T cells; proteins with SILAC ratios >3 taken

Substance | binding
Rad50 (from UniProt Q92878 1-1312) | binds
DNA-PK (from UniProt P78527 1-4128) | binds

These are yes or no findings as the source states them, for the method shown. In cells and extracts the contact can be indirect. Here binding means that the protein was enriched with, or labelled near, the bait; the list need not be complete. Where a sequence is shown, tags or fusion partners need not be part of it.
